From US20060100431A1, “Biologically active compounds” (Amura Therapeutics Limited, priority 2002, published 2006)
Some results were stated once for a whole list of compounds, not compound by compound. Some ranges recur; such a range may be that of the whole group of compounds.

molecular target: T1, human cathepsin K (Homo sapiens, UniProt P43235); experiment: Cathepsin K peptidase activity assay (Ki); format: biochemical
T1 construct: Dr. Boris Turk (Josef Stefan Institute, Ljubljana, Slovenia)
T1 sequence (P43235 115-329): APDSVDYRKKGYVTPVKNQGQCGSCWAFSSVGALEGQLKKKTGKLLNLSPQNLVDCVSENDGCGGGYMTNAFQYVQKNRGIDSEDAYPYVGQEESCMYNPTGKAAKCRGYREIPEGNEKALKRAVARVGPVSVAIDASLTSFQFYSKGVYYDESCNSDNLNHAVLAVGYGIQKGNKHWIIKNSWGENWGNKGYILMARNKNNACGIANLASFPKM
In short: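 Buffer: 10 mM bis-tris-propane pH 6.5, 1 mM EDTA, 5 mM 2-mercaptoethanol, 1 mM CaCl2; DMSO <1%. Ki assumed reversible, pure-competitive, from Ki^app=Ki(1+[So]/KM^app) by non-linear regression.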

Ki, inhibitors of cathepsin K	Compound
1 to 5000 nM	CC(C)C[C@H](NC(=O)c1ccc(N(C)C)cc1)C(=O)N1CC[C@@H]2[C@H]1C(=O)CN2C(=O)C(c1ccccc1)c1ccccc1 [Example 78, (3aR,6aS)-4-Dimethylamino-N-[(1S)-1-(4-diphenylacetyl-6-oxo-hexahydro-pyrrolo[3,2-b]pyrrole-1-carbonyl)-3-methyl-butyl]-benzamide]
1 to 5000 nM	CC(C)C[C@H](NC(=O)c1ccc(N(C)C)cc1)C(=O)N1CC[C@@H]2[C@H]1C(=O)CN2C(=O)c1ccc(N2CCOCC2)nc1 [Example 94, (3aR,6aS)-4-Dimethylamino-N-{(1S)-3-methyl-1-[4-(6-morpholin-4-yl-pyridine-3-carbonyl)-6-oxo-hexahydro-pyrrolo[3,2-b]pyrrole-1-carbonyl]-butyl}-benzamide]
1 to 5000 nM	CC(C)C[C@H](NC(=O)c1ccc(N(C)C)cc1)C(=O)N1CC[C@@H]2[C@H]1C(=O)CN2C(=O)C1(N)CCC1 [Example 223, (3aR,6aS)-N-{(1S)-1-[4-(1-Amino-cyclobutanecarbonyl)-6-oxo-hexahydro-pyrrolo[3,2-b]pyrrole-1-carbonyl]-3-methyl-butyl}-4-dimethylamino-benzamide]
1 to 5000 nM	CC(C)C[C@H](NC(=O)c1ccc(N(C)C)cc1)C(=O)N1CC[C@@H]2[C@H]1C(=O)CN2C(=O)[C@@H](N)C1CCCCC1 [Example 226, (3aR,6aS)-N-{(1S)-1-[4-((2S)-2-Amino-2-cyclohexyl-acetyl)-6-oxo-hexahydro-pyrrolo[3,2-b]pyrrole-1-carbonyl]-3-methyl-butyl}-4-dimethylamino-benzamide]
1 to 5000 nM	CCC(CC)C(=O)N1CC(=O)[C@@H]2[C@H]1CCN2C(=O)[C@H](CC(C)C)NC(=O)c1ccc(N(C)C)cc1 [Example 231, (3aR,6aS)-4-Dimethylamino-N-{(1S)-1-[4-(2-ethyl-butyryl)-6-oxo-hexahydro-pyrrolo[3,2-b]pyrrole-1-carbonyl]-3-methyl-butyl}-benzamide]
1 to 5000 nM	CC(C)C[C@H](NC(=O)c1ccc(N(C)C)cc1)C(=O)N1CC[C@@H]2[C@H]1C(=O)CN2C(=O)CCCC(=O)O [Example 107, (3aS,6aR)-5-{4-[(2S)-2-(4-Dimethylamino-benzoylamino)-4-methyl-pentanoyl]-3-oxo-hexahydro-pyrrolo[3,2-b]pyrrole-1-yl}-5-oxo-pentanoic acid]
1 to 5000 nM	CC(C)CC(CC(=O)N1CCc2ccccc2C1)C(=O)N1CC[C@@H]2[C@H]1C(=O)CN2C(=O)c1ccccc1 (stereo partly drawn) [Example 188, (3aR,6aS)-1-(4-Benzoyl-6-oxo-hexahydro-pyrrolo[3,2-b]pyrrol-1-yl)-4-(3,4-dihydro-1H-isoquinolin-2-yl)-2-isobutyl-butane-1,4-dione]
1 to 5000 nM	CC(C)C[C@H](NC(=O)c1ccc(N(C)C)cc1)C(=O)N1CC[C@@H]2[C@H]1C(=O)CN2C(=O)c1ccccn1 [Example 79, (3aR,6aS)-4-Dimethylamino-N-{(1S)-3-methyl-1-[6-oxo-4-(pyridine-2-carbonyl)-hexahydro-pyrrolo[3,2-b]pyrrole-1-carbonyl]-butyl}-benzamide]
1 to 5000 nM	CC(C)C[C@H](NC(=O)c1ccc(N(C)C)cc1)C(=O)N1CC[C@@H]2[C@H]1C(=O)CN2C(=O)[C@@H](N)C(C)C [Example 205, (3aR,6aS)-N-{(1S)-1-[4-((2S)-2-Amino-3-methyl-butyryl)-6-oxo-hexahydro-pyrrolo[3,2-b]pyrrole-1-carbonyl]-3-methyl-butyl}-4-dimethylamino-benzamide]
1 to 5000 nM	CC(C)C[C@H](NC(=O)c1ccc(N(C)C)cc1)C(=O)N1CC[C@@H]2[C@H]1C(=O)CN2C(=O)C1CCNCC1 [Example 242, (3aR,6aS)-4-Dimethylamino-N-{(1S)-3-methyl-1-[6-oxo-4-(piperidine-4-carbonyl)-hexahydro-pyrrolo[3,2-b]pyrrole-1-carbonyl]-butyl}-benzamide]
1 to 5000 nM	CC(C)C[C@H](NC(=O)c1ccc(N(C)C)cc1)C(=O)N1CC[C@@H]2[C@H]1C(=O)CN2C(=O)C1CCCO1 (stereo partly drawn) [Example 238, (3aR,6aS)-4-Dimethylamino-N-{(1S)-3-methyl-1-[6-oxo-4-(tetrahydro-furan-2-carbonyl)-hexahydro-pyrrolo[3,2-b]pyrrole-1-carbonyl]-butyl}-benzamide]
1 to 5000 nM	CC(C)C[C@H](NC(=O)c1ccc(N(C)C)cc1)C(=O)N1CC[C@@H]2[C@H]1C(=O)CN2C(=O)C1CCOC1 (stereo partly drawn) [Example 239, (3aR,6aS)-4-Dimethylamino-N-{(1S)-3-methyl-1-[6-oxo-4-(tetrahydro-furan-3-carbonyl)-hexahydro-pyrrolo[3,2-b]pyrrole-1-carbonyl]-butyl}-benzamide]

Further lines, the compound ahead of its results:

Compound	Ki, inhibitors of cathepsin K
CC(=O)N1CCC[C@H]1C(=O)N1CC(=O)[C@@H]2[C@H]1CCN2C(=O)[C@H](CC(C)C)NC(=O)c1ccc(N(C)C)cc1 [Example 216, (3aR,6aS)-N-{(1S)-1-[4-((2S)-1-Acetyl-pyrrolidine-2-carbonyl)-6-oxo-hexahydro-pyrrolo[3,2-b]pyrrole-1-carbonyl]-3-methyl-butyl}-4-dimethylamino-benzamide]	1 to 5000 nM
CC(C)C[C@H](NC(=O)c1ccc(N(C)C)cc1)C(=O)N1CC[C@@H]2[C@H]1C(=O)CN2C(=O)[C@@H](NC(=O)OCc1ccccc1)C(C)C [Example 158, (3aS,6aR)-((S)-1-{4-[(2S)-2-(4-Dimethylamino-benzoylamino)-4-methyl-pentanoyl]-3-oxo-hexahydro-pyrrolo[3,2-b]pyrrole-1-carbonyl}-2-methyl-propyl)-carbamic acid benzyl ester]	1 to 5000 nM
CC(C)C[C@H](NC(=O)c1cccc(CN)c1)C(=O)N1CC[C@@H]2[C@H]1C(=O)CN2C(=O)c1ccccc1S(C)(=O)=O [Example 185, (3aR,6aS)-3-Aminomethyl-N-{(1S)-1-[4-(2-methanesulfonyl-benzoyl)-6-oxo-hexahydro-pyrrolo[3,2-b]pyrrole-1-carbonyl]-3-methyl-butyl}-benzamide]	1 to 5000 nM
CC(C)C[C@H](NC(=O)c1cccc(CN)c1)C(=O)N1CC[C@@H]2[C@H]1C(=O)CN2C(=O)[C@H](C)c1ccccc1 [Example 176, (3aR,6aS)-3-Aminomethyl-N-{(1S)-3-methyl-1-[6-oxo-4-((2R)-2-phenyl-propionyl)-hexahydro-pyrrolo[3,2-b]pyrrole-1-carbonyl]-butyl}-benzamide]	1 to 5000 nM
COc1ccc(C(=O)N2CC(=O)[C@@H]3[C@H]2CCN3C(=O)[C@H](CC(C)C)NC(=O)c2ccc(N(C)C)cc2)cc1 [Example 66, (3aR,6aS)-4-Dimethylamino-N-{(1S)-1-[4-(4-methoxy-benzoyl)-6-oxo-hexahydro-pyrrolo[3,2-b]pyrrole-1-carbonyl]-3-methyl-butyl}-benzamide]	1 to 5000 nM
CC(=O)N(C)CC(=O)N1CC(=O)[C@@H]2[C@H]1CCN2C(=O)[C@H](CC(C)C)NC(=O)c1ccc(N(C)C)cc1 [Example 201, (3aR,6aS)-N-((1S)-1-{4-[2-(Acetyl-methyl-amino)-acetyl]-6-oxo-hexahydro-pyrrolo[3,2-b]pyrrole-1-carbonyl}-3-methyl-butyl)-4-dimethylamino-benzamide]	1 to 5000 nM
CC(C)C[C@H](NC(=O)c1ccc(C(C)(C)C)cc1)C(=O)N1CC[C@@H]2[C@H]1C(=O)CN2C(=O)c1cccc(Br)c1 [Example 25, (3aR,6aS)-N-{(1S)-1-[4-(3-Bromo-benzoyl)-6-oxo-hexahydro-pyrrolo[3,2-b]pyrrole-1-carbonyl]-3-methyl-butyl}-4-tert-butyl-benzamide]	1 to 5000 nM
CC(C)C[C@H](NC(=O)c1cccc(Oc2ccccc2)c1)C(=O)N1CC[C@@H]2[C@H]1C(=O)CN2C(=O)c1cccnc1 [Example 20, (3aR,6aS)-N-{(1S)-3-Methyl-1-[6-oxo-4-(pyridine-3-carbonyl)-hexahydro-pyrrolo[3,2-b]pyrrole-1-carbonyl]-butyl}-3-phenoxy-benzamide]	1 to 5000 nM
CC(C)C[C@H](NC(=O)c1ccc(N(C)C)cc1)C(=O)N1CC[C@@H]2[C@H]1C(=O)CN2C(=O)c1ccc2ncccc2c1 [Example 52, (3aR,6aS)-4-Dimethylamino-N-{(1S)-3-methyl-1-[6-oxo-4-(quinoline-6-carbonyl)-hexahydro-pyrrolo[3,2-b]pyrrole-1-carbonyl]-butyl}-benzamide]	1 to 5000 nM
CC(C)C[C@H](NC(=O)c1ccc(N(C)C)cc1)C(=O)N1CC[C@@H]2[C@H]1C(=O)CN2C(=O)[C@@H](N)CC(C)C [Example 150, (3aR,6aS)-N-{(1S)-1-[4-((2S)-2-Amino-4-methyl-pentanoyl)-6-oxo-hexahydro-pyrrolo[3,2-b]pyrrole-1-carbonyl]-3-methyl-butyl}-4-dimethylamino-benzamide]	1 to 5000 nM
CC(C)C[C@H](NC(=O)c1ccc(C(C)(C)C)cc1)C(=O)N1CC[C@@H]2[C@H]1C(=O)CN2C(=O)c1ccc(-n2cncn2)cc1 [Example 26, (3aR,6aS)-4-tert-Butyl-N-{(1S)-3-methyl-1-[6-oxo-4-(4-[1,2,4]triazol-1-yl-benzoyl)-hexahydro-pyrrolo[3,2-b]pyrrole-1-carbonyl]-butyl}-benzamide]	1 to 5000 nM
CC(C)C[C@H](NC(=O)c1ccc(C(C)(C)C)cc1)C(=O)N1CC[C@@H]2[C@H]1C(=O)CN2C(=O)c1ccc2ncsc2c1 [Example 32, (3aR,6aS)-N-{(1S)-1-[4-(Benzothiazole-6-carbonyl)-6-oxo-hexahydro-pyrrolo[3,2-b]pyrrole-1-carbonyl]-3-methyl-butyl}-4-tert-butyl-benzamide]	1 to 5000 nM
